# Measured values as given in PubChem BioAssay AID1347423 (Functional Genomics Laboratory (NCATS/FGL), 2020).
# The campaign covered roughly 52,000 sequences. About 210 (0.4%) were called active.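 Rule for the calls: active = gene whose silencing raises cell survival under the drug, median off-target-corrected z-score across its silencing RNAs 2 or more; inactive = the rest.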 The list shows a part of the results.
# Experiment: Resistance to Poly (ADP-Ribose) Polymerase inhibitor: Gene Identification via Genome-wide siRNA Screen
# Settings: mouse BRCA2 R2336H ES cells, olaparib, CellTiter-Glo viability; active compounds read high
# Method in brief: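 Genome-wide siRNA screen (3 siRNAs/gene, 20 nM) in mouse ES cells carrying hypomorphic BRCA2 R2336H; olaparib 500 nM added 48 h post-transfection, CellTiter-Glo viability 72 h later. Normalized to plate-median negative control; MAD z-scores, gene median, seed-adjusted.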
row,Sequence,z-score
1,GGCCAGGAAAUAUGAAAUATT against Phtf1,inactive: -0.2
2,GGACAUUUUAUAAAUGGUGTT against Wdr21,inactive: 0.105
3,GCAGGUUCAGGCAGUAAUUTT against Kpna4,inactive: -1.9
4,GGGAUUCAAGAAGUCCUGUTT against Elf2,inactive: 0.151
5,GCAGAAAAGGCGAGUUUAUTT against Phf19,inactive: -0.35
6,CGACUUUGGAGAAUUUCAATT against Ap1gbp1,inactive: 0.314
7,GCUGACUUCACAUUUGGCUTT against Mms19l,inactive: 0.853
8,GCCGAAGUGACAAUGUCUCTT against Tbc1d14,inactive: -0.0571
9,GGUCCUGAGCACAUAGACUTT against 0610007P14Rik,inactive: 0.74
10,AUGGCUAUUUUGAAACCUCTT against H2-M10.3,inactive: 2.38
11,GCUACAAAGCGAUGUUUCATT against Pola2,inactive: -1.88
12,GGUGUCCUCUUUGUUCAUGTT against Sgce,inactive: -0.311
13,GCGAAAUCUUUGUCACUAATT against Sertad4,inactive: 0.937
14,GCUUAUGAGACUCAUUUAATT against 3230401D17Rik,inactive: 0.738
15,GGCAGAGAUUAAGAACUGUTT against Cd97,inactive: -0.589
16,CCUCAUGUCACUUUAACAUTT against Ccl7,inactive: 0.48
17,GGAUGUUAGUCCAUUUGGCTT against Gpc5,inactive: -0.173
18,GGACGAUAAAUUCACUGUUTT against Inpp5d,inactive: -0.166
19,CCAUAUCAGUAUUUAGAACTT against Syt9,inactive: 0.27
20,CCAAUCGAUACAUCAUUUUTT against Gcl,inactive: 1.54
21,CCUCAUCAAAGUCCGUCUATT against AW491445,inactive: 1.4
22,CCGAGUAUGAGAAAUAUGATT against Ext1,inactive: 0.542
23,GGAAUAAUUGGUGUUAAAGTT against Hnrpk,inactive: -0.376
24,GGCCUGAGGACUAUGUUUUTT against C1s,inactive: 1.41
25,GGAGAUCCUAGGCUUGAACTT against Chx10,inactive: 0.887
26,GCAGGGACCGUCUAUAACUTT against Ptprb,inactive: -0.654

row,Sequence,z-score
1,AUCUCGUCUUUGGUUAAUATT against V1rd11,inactive: 1.3
2,GGAAGCAAUGAUCAAUUAUTT against 4930511A21Rik,inactive: -0.586
3,GGCUUUCAUUCUGCAGCUATT against Olfr1089,inactive: -0.876
4,GCUCAUCCAUUACGAGUUGTT against Dusp18,inactive: 0.528
5,GGAUGGGAACUACAUAAUUTT against 2310057J18Rik,inactive: -0.448
6,GCUCCCUGUUCUUCACCAUTT against Ifitm1,inactive: -0.399
7,GUUGAGGAUAACAUUGAACTT against MGC102419,inactive: -0.623
8,GGACAUGCUUUCAAUGGAATT against Tshr,inactive: 0.716
9,GCCUUCAACAAAAAGUUCUTT against Olfr137,inactive: 0.0535
10,GGAUUUGCCUACACAUAUGTT against Nqo1,inactive: -0.198
11,GGAUGCUCAAAAUCUACAATT against H2-M11,inactive: -0.801
12,GGAAUUUGGUGCAGUGUCCTT against AW544865,inactive: -1.75
13,CCUCUUUUUCUCCUAUUUUTT against Olfr1165,inactive: -1.07
14,GGAGUUUCUGUUUAACAUGTT against Hoxa9,inactive: 1.44
15,GGAAGUUGAAUACAUUGUCTT against Arntl,inactive: 0.0738
16,GGAACACUGUGAGAACAAGTT against C230081A13Rik,inactive: -1.22
17,GGCUUUCGACCAGUUUUUCTT against Hoxa11,inactive: 0.0373
18,GGCUCAUCAGAUGUAAACATT against 4931407K02Rik,inactive: 3.15
19,GCUUUCUUAGCAUUAAAUCTT against Zfp307,inactive: 0.81
20,CGGCCUGUUAUAAACCUGCTT against 4933409K07Rik,inactive: -0.131
21,CCUCUACUCAGGAAAUAAGTT against 1810043M15Rik,inactive: 1.21
22,GCUCAUAAUUACAUCACCATT against Hist2h3c2,inactive: -0.882
23,GCCUCUUAUUAACUGAACGTT against BC061194,inactive: -1.28
24,CCCAUUACGCAAAUUGUUCTT against Rin3,inactive: 0.956
25,GGAUUUUGCCUAAAAUACATT against Sephs1,inactive: -1.13
26,GGGCCUUUUUAUCCAACUUTT against Mcts1,inactive: -1.18

# Part of the list above, set out differently.
row	Sequence	z-score
2	GGAAGCAAUGAUCAAUUAUTT against 4930511A21Rik	inactive: -0.586
4	GCUCAUCCAUUACGAGUUGTT against Dusp18	inactive: 0.528
10	GGAUUUGCCUACACAUAUGTT against Nqo1	inactive: -0.198
12	GGAAUUUGGUGCAGUGUCCTT against AW544865	inactive: -1.75
13	CCUCUUUUUCUCCUAUUUUTT against Olfr1165	inactive: -1.07
21	CCUCUACUCAGGAAAUAAGTT against 1810043M15Rik	inactive: 1.21
22	GCUCAUAAUUACAUCACCATT against Hist2h3c2	inactive: -0.882

# Single entries from the results shown.
# In z-score, GGGAUUCAAGAAGUCCUGUTT against Elf2 is listed with inactive: 0.151
# In z-score, CGACUUUGGAGAAUUUCAATT against Ap1gbp1 is listed with inactive: 0.314

# Later entries:

row,Sequence,z-score
1,GGAAGAAUCUUCCUGUUAATT against Chic2,inactive: -1.62
2,GGUUUCUGCAUGAAAAUCATT against Irak4,inactive: -0.656
3,CCCUAUCUUCAGGCCAUUGTT against LOC330776,inactive: -1.97
4,GGCAUAGAAGAGAUGACAGTT against Fabp7,inactive: -0.762
5,GGAGGAUUAUCACAAGUCCTT against Anxa6,inactive: 0.307
6,GGACUUAGCACCCUCCUAATT against Tnfsf15,inactive: -1.93
7,GCUACUAGUAUAUGUACUCTT against Psg28,inactive: -0.408
8,GGCAAAAUGGUUUUUUGUUTT against AI987662,inactive: 0.237
9,GGCCUUUCUAGAGCUGUGGTT against 5830482F20Rik,inactive: -1.44
10,GGAGGUGCUGAAGUUCUACTT against Bckdha,inactive: -1.17
11,GGUGACACCGCUCAUGAUCTT against Sephs2,inactive: -0.485
12,CCUGUUCAGAUUGUCAACATT against Ptov1,inactive: 1.88
13,CCCAACAAUCCAACAAUGATT against LOC432723,inactive: 0.199
14,GCAAUAGCCGGGAGAUAACTT against Itlnb,inactive: -0.128
15,GGCAUAUCUGAGGUGAAUCTT against Sec23b,inactive: 0.481
16,GGUUAUGAAUCUCAUCAGUTT against St13,inactive: 0.273
17,GCACUGCUGGCUAUUGGAATT against 2310061A22Rik,inactive: -1.24
18,GGCACAUGGUUUCUGACCUTT against Bsf3,inactive: -0.000555
19,CCGUCUUAAUGGAUGAUUGTT against D630005C06Rik,inactive: 0.433
20,GGAGAAGGUGGCCUUCUUUTT against Fbxo46,inactive: 0.318
21,GCAGACUCUUCCAAGUAAUTT against Lrrc28,inactive: -0.785
22,GCCAACUGGAUAAAUGUCATT against 2600001J17Rik,inactive: -0.741
23,CGAACAGGAGAGCCUUAUUTT against H2-DMb2,inactive: -2.43
24,GGAAGCAUUCCAAUGGUAGTT against Cyp2c39,inactive: -1.32
25,CCUUCUUUCGCGUAUGCCUTT against Dll1,inactive: 0.11
26,CCAUAGGAACUUCUACUCCTT against 5330438E18Rik,inactive: -1.34

row,Sequence,z-score
1,GCUCCUGAUCAAAUAAAGUTT against Ldh2,inactive: 0.209
2,GGACUUGAUCAAUGGCUAUTT against BC030477,inactive: 0.318
3,GGGACUCUUCACUUGAAAUTT against Ccl3,inactive: 0.335
4,GGAUGUAACUGAAAGAGAATT against 5830415L20Rik,inactive: -0.688
5,GGUCAAGUCAGCAUUCCUGTT against 1500019G21Rik,inactive: 0.436
6,GGAUUGGAUCUUACAUGUCTT against Scnn1b,inactive: 0.623
7,GGAGAGCAAUGGUCCAACATT against Clta,inactive: 1.09
8,GCUGGCUAUACUUUACAACTT against Prkg1,inactive: 0.164
9,GGGAGCUAGAUAUCCGGAATT against 1500032D16Rik,inactive: -0.155
10,GGAGAUCAAGGUGAUUUCGTT against Rs1h,inactive: -1.29
11,GGUUUCUAUUCUACCUCCCTT against Ceacam14,inactive: 0.0741
12,GCACUUUCGUAGAUCACCATT against Bri3bp,inactive: 0.953
13,GCAGCCUGUACAGUUCUAUTT against Gpr139,inactive: 0.492
14,GGUGAUACUCAGUUUAAGCTT against Pms2,inactive: -0.346
15,GGAGUGCGCUUGAAUAUGATT against Lamp1,inactive: 1.03
16,GGGUGCACUGGCUAAUAUATT against H2-Ea,inactive: -1.19
17,GGUGCAAACUGAGGUCCUGTT against Ebna1bp2,inactive: -2.58
18,GGCAGAUGUACUGAUUAAATT against 9930032O22Rik,inactive: 0.0206
19,GCGUGGUUUCUGAAUACAUTT against Nt5e,inactive: -1.13
20,GGUAUAUAACCACUCUGUCTT against Dot1l,inactive: -0.0474
21,GGAAAAUUAAUAGCACAAGTT against Them2,inactive: -0.221
22,CCAAGCUUGUAGCUCAAGCTT against Gm443,inactive: -0.0243
23,CGAGAUCAAACCUGGCUUATT against Adarb1,inactive: -1.8
24,GCUAAUUUUUUGAUUGCCCTT against 2310043L02Rik,inactive: -0.23
25,GCGGCUCUUUAAGAUCCAGTT against Fbxw5,inactive: 0.0259
26,GGUGAUAACAAUGUCCCUUTT against 1110055J05Rik,inactive: -0.69
